Source: patent publication US20210395318A1

Target: cynomolgus FAP (cynomolgus)
Assay: SPR

B1: DARPin Protein #5 (designed binder)
chain: GSDLGKKLLEAARAGQDDEVRELLKAGADVNAKDYFSHTPLHLAARNGHLKIVEVLLKAGADVNAKDFAGKTPLHLAAADGHLEIVEVLLKAGADVNAQDIFGKTPADIAADAGHEDIAEVLQKAAGSPTPTPTTPTPTPTTPTPTPTGSDLGKKLLEAARAGQDDEVRILLAAGADVNAKDVLGWTPLHLAAFEGHLEIVEVLLKAGADVNAKDKKGWTPLQLAARTGHLEIVEVLLKAGADVNAKDHIGATPLHLAAWQGHPEIVEVLLKAGADVNAQDKSGKTPADLAADAGHEDIAEVLQKAAGSPTPTPTTPTPTPTTPTPTPTGSDLGKKLLQAARAGQLDEVRELLKAGADVNAKDTWGFTPLHIAAESGHLEIVEVLLKAGADVNAKDVQGRTPLHIAAHSGHLEIVEVLLKAGADVNAKDFRGWTPLHLAAWSGHLEIVEILLKAGADVNAQDKSGKTPADLAARAGHQDIAEVLQKAAGSPTPTPTTPTPTPTTPTPTPTGSDLGKKLLQAARAGQLDEVRELLKAGADVNAKDTWGFTPLHIAAESGHLEIVEVLLKAGADVNAKDVQGRTPLHIAAHSGHLEIVEVLLKAGADVNAKDFRGWTPLHLAAWSGHLEIVEILLKAGADVNAQDKSGKTPADLAARAGHQDIAEVLQKAA
  binding: binds

These are yes or no findings as the source states them, for the method shown. Binding calls can cover weak binding; strength is not graded here.
